Substitutions are numbered along the chain they refer to. No constants are given. Whether binding was seen depends on the method and setting. Some binding calls cover weakened binding; strength is not graded here. Blank lines part the entries; values can stand above or below the binder they belong to.
Experiments:
[1] = target: hIL-1RAP(1-367)_F-chLys_Avi (human); experiment: ELISA on human IL-1RAcP (AG-12210), IgG1f_AEASS titrated 0.007-200 nM, AP-coupled secondary antibody with AttoPhos, signal over background (S/BG)
[2] = target: hIL-1RAP(1-367)_F-chLys_Avi (human); experiment: ELISA binning; competitor: coated Y024084 FabCys-AviHis (sheet title Y024084_FAB COATED); 1.5 nM biotinylated human IL-1RAcP (AG-12210) pre-incubated with the titrated Fab; captured IL-1RAcP detected with streptavidin-AP
[3] = target: hIL-1RAP(1-367)_F-chLys_Avi (human); experiment: ELISA binning; competitor: coated Y024149 FabCys-AviHis (sheet title Y024149_FAB COATED); 1.5 nM biotinylated human IL-1RAcP (AG-12210) pre-incubated with the titrated Fab; captured IL-1RAcP detected with streptavidin-AP
[4] = target: hIL-1RAP(1-367)_F-chLys_Avi (human); experiment: ELISA binning; competitor: coated Y024148 FabCys-AviHis; 1.5 nM biotinylated human IL-1RAcP (AG-12210) pre-incubated with the titrated Fab; captured IL-1RAcP detected with streptavidin-AP
[5] = target: hIL-1RAP(1-367)_F-chLys_Avi (human); experiment: ELISA binning; competitor: coated 1A05 FabCys-AviHis; 1.5 nM biotinylated human IL-1RAcP (AG-12210) pre-incubated with the titrated Fab; captured IL-1RAcP detected with streptavidin-AP
[6] = target: hIL-1RAP(1-367)_F-chLys_Avi (human); experiment: ELISA binning; competitor: coated CAN04 FabCys-AviHis; 1.5 nM biotinylated human IL-1RAcP (AG-12210) pre-incubated with the titrated Fab; captured IL-1RAcP detected with streptavidin-AP

B5: R001031 (CAN04) (antibody, human IgG1, kappa, V domains shown)
VH: QVQLVQSGAEVKKPGSSVKVSCKASGYAFSSSWMNWVRQAPGQGLEWMGRIYPGDGNTHYAQKFQGRVTLTADKSTSTAYMELSSLRSEDTAVYYCGEGYLDPMDYWGQGTLVTVSS
VL: DIQMTQSPSSLSASVGDRVTITCSASQGINNYLNWYQQKPGKAPKLLIHYTSGLHAGVPSRFSGSGSGTDYTLTISSLQPEDVATYYCQQYSILPWTFGGGTKVEIKR
binding [1]: binds

B6: R001032 (1A05) (antibody, human IgG1, kappa, V domains shown)
VH: LEQSGGGAEGGLVKPGGSLELCCKASGFSLSTSYWRCWVRQAPGKGLEWIGCIYAGSGDVTYYANWVNGRFTLSRDIDQSTGCLQLNSLTAADTAMYYCASGVGFGYFNLWGQGTLVTVSS
VL: ALVMTQTPSPVSAAVGGTVTINCQASEDIYSNLAWFQQKPGQPPKLLIYDASTLASGVPSRFSGSGSGTEFTLTISGLQSDDAATYYCLGVYTHISADNAFGGGTEVVVKR
binding [1]: binds

The next lines start with the values.

binding [1]: binds
B1: Y024148_h_IgG1f_AEASS (antibody, V domains shown)
VH: EVQLVESGGGLVQPGGSLRLSCAASGGTIGGSAVHWVRQAPGKGLVWVSRILTYSSTTQYAESVKGRFTISRDNAKNTLYLQMNSLRAEDTAVYYCARGSSEYPKFDIWGQGTLVTVSS
VL: DIQMTQSPSTLSASVGDRVTITCRASQSISSWLAWYQQKPGKAPKLLIYDASSLESGVPSRFSGSGSGTEFTLTISSLQPEDFATYYCHQLLIYPHTFGQGTKVEIKR

binding [1]: binds
B2: Y024149_h_IgG1f_AEASS (antibody, V domains shown)
VH: B1 VH with I29F, V34M, S55G, S56G, T57I, T58A, Q59T
VL: B1 VL

binding [2]: binds
binding [3]: binds
binding [4]: binds
binding [5]: binds
binding [6]: binds
B3: Y024149_h_FabCys-AviH (Fab, V domains shown)
VH: B1 VH with I29F, V34M, S55G, S56G, T57I, T58A, Q59T
VL: B1 VL

binding [2]: binds
binding [3]: binds
binding [4]: binds
binding [5]: binds
binding [6]: binds
B4: Y024148_h_FabCys-AviH (Fab, V domains shown)
VH: B1 VH
VL: B1 VL

From patent US20220411517A1
